Results are given in words; binding and its absence hold for the method and conditions named. In cells and extracts the contact can be indirect. Some results given as binding are weak or reduced against the parent protein; the word gives no strength.
What was measured:
[1] = target: ERK1 (extracellular signal-regulated kinase 1), endogenous (human) (UniProt P27361); assay: co-immunoprecipitation with anti-IQGAP1 from cross-linked cell lysate, anti-Erk1/2 immunoblot
[2] = target: ERK2 (extracellular signal-regulated kinase 2), endogenous (human) (UniProt P28482); assay: as above
[3] = target: ERK1 (extracellular signal-regulated kinase 1), endogenous (human) (UniProt P27361); assay: co-immunoprecipitation, primary human cells and SK-Mel-28 melanoma cells
[4] = target: ERK2 (extracellular signal-regulated kinase 2), endogenous (human) (UniProt P28482); assay: as above

Sequences of proteins named here, by UniProt entry; tags and fusion partners are left off. Residues count along the entry.
UniProt P27361, residues 2-379: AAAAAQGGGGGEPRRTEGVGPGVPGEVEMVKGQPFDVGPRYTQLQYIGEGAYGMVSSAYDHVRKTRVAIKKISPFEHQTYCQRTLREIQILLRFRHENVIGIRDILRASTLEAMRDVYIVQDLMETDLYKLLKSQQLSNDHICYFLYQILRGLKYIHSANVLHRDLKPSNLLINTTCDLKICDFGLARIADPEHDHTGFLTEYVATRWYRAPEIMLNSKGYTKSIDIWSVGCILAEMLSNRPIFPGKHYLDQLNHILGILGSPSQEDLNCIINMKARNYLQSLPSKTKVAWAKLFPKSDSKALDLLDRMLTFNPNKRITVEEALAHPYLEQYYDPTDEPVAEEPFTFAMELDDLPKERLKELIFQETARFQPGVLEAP
UniProt P28482, residues 2-360: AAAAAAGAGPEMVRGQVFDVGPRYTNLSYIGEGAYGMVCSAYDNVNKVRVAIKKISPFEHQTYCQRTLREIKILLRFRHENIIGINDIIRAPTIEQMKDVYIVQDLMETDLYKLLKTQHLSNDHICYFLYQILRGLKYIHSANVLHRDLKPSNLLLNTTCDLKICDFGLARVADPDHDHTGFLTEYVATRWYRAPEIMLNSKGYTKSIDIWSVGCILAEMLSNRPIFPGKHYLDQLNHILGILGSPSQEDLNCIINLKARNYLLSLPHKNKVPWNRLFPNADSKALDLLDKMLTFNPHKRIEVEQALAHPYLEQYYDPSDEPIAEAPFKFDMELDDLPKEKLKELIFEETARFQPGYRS
UniProt P46940, residues 2-1657: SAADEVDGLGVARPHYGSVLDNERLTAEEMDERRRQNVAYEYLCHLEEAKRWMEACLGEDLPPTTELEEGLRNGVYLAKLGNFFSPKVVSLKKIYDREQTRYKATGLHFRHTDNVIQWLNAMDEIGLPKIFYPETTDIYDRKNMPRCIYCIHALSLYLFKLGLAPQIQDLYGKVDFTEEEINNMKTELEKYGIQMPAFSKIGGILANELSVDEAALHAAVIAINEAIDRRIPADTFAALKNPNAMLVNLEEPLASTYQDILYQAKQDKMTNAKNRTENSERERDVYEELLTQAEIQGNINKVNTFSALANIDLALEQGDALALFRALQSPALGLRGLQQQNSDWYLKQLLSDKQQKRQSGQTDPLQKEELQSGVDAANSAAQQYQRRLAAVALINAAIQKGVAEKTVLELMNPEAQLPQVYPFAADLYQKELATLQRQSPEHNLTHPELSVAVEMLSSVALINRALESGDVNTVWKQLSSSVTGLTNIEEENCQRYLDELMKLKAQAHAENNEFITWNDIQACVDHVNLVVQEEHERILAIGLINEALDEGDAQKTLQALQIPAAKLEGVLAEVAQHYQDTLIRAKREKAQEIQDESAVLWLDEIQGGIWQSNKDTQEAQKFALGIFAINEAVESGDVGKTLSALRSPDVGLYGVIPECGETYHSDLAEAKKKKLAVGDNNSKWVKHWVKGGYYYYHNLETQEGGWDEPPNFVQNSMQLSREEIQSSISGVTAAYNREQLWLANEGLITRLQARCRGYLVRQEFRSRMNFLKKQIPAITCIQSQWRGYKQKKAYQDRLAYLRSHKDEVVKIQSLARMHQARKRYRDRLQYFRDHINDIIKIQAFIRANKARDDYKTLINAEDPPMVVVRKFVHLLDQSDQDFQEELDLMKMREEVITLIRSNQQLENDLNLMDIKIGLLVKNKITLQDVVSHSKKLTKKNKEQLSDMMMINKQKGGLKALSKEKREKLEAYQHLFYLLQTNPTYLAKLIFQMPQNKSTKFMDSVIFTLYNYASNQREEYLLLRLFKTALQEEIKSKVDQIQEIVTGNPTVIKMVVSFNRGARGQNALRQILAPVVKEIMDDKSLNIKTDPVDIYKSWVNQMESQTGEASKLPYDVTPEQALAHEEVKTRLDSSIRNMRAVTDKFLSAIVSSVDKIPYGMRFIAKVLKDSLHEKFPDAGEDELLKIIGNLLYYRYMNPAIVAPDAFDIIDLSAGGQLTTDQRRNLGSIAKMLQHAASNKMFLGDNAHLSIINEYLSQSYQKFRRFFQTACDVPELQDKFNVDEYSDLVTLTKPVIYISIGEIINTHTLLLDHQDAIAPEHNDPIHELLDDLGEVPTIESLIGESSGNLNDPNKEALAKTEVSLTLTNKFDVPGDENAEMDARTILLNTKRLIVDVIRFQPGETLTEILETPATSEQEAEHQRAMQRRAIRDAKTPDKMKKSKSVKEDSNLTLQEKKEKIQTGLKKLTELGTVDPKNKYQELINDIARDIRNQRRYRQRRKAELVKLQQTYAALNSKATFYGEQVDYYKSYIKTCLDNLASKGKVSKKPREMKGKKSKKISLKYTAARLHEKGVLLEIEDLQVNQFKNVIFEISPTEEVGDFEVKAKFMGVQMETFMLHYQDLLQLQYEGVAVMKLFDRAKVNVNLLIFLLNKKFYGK

Measured: binding

IQGAP1 (IQ motif containing GTPase activating protein 1), endogenous protein (from UniProt P46940 2-1657)
binds: all assays above

Reference: US20140162960A1
